Taken from: PubChem BioAssay AID504764 (Drosophila RNAi Screening Center, 2011)
The deposit covers about 22,000 reagents; this is a random part of those that have a named target and a result. Of all reagents, 403 (1.9%) were called active. 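Unnormalised raw counts per well; ratio z-scores behind the hit calls and whether each hit raises or lowers signal are not deposited.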 A number with no mark means an inactive call. No sequences are given here. Not stated in the record: the amount of reagent.

Purpose: 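Genome-wide screen for regulators of Notch-driven gene expression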 (primary screen)
System: Drosophila Kc167 cells
Knock-down reagent: long dsRNA against Drosophila genes
Time to read-out: about 5 days (4 days dsRNA, then 24 h after transfection)
Treatment: transfection of constitutively active membrane-tethered Notch lacking the extracellular domain, read 24 h later
Read-out: 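Firefly luciferase from an E(spl)m3 reporter with active Notch, plus control-promoter and uninduced reporter wells for normalisation; unnormalised counts, duplicate wells a and b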
Direction: induced reporter light, run 1, well a and induced reporter light, run 1, well b: higher = more light from the Notch target reporter with active Notch; control promoter light, run 1, well a and control promoter light, run 1, well b: higher = more light from the viral control promoter (cell number, transfection, viability); uninduced reporter light, run 1, well a: higher = more light from the Notch target reporter without active Notch
Active means: 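Hit if the duplicate-averaged log2 ratio of induced to control-promoter light gives a plate-wise z beyond ±2, or induced to uninduced beyond ±1.8; weak-control or discordant-duplicate wells dropped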
Meaning of the calls: active = modifier hit (raised or lowered Notch signal); inactive = not a hit

The first 2 entries as a preview:
gene | amplicon | induced reporter light, run 1, well a | induced reporter light, run 1, well b | control promoter light, run 1, well a | control promoter light, run 1, well b | uninduced reporter light, run 1, well a
cyp33 (cyclophilin-33) | DRSC07600 | 1.01e5 | 96735 | 1.82e5 | 2.21e5 | 9675
CG13426 | DRSC06388 | 1.68e5 | 1.33e5 | 1.62e5 | 1.95e5 | 10200

Main list, repeating the preview:
gene | amplicon | induced reporter light, run 1, well a | induced reporter light, run 1, well b | control promoter light, run 1, well a | control promoter light, run 1, well b | uninduced reporter light, run 1, well a
cyp33 (cyclophilin-33) | DRSC07600 | 1.01e5 | 96735 | 1.82e5 | 2.21e5 | 9675
CG13426 | DRSC06388 | 1.68e5 | 1.33e5 | 1.62e5 | 1.95e5 | 10200
Mcm6 (Minichromosome maintenance 6) | DRSC18680 | 1.78e5 | 1.48e5 | 1.69e5 | 1.59e5 | 12825
Ama (Amalgam) | DRSC12489 | 1.41e5 | 1.45e5 | 98090 | 77280 | 11745
Srg3 (Sting-regulated gene 3) | DRSC08984 | 2.97e5 | 2.22e5 | 2.29e5 | 2.08e5 | 15030
Srg3 (Sting-regulated gene 3) | DRSC10178 | 1.89e5 | 1.68e5 | 2.99e5 | 2.81e5 | 8235
Pig1 (Pre-intermoult gene 1) | DRSC18698 | 75060 | 63155 | 48970 | 44140 | 14340
CG14131 | DRSC10135 | 1.21e5 | 1.12e5 | 2.11e5 | 1.83e5 | 5675
CG4362 | DRSC15567 | 1.91e5 | 1.51e5 | 1.63e5 | 1.62e5 | 10705
mod(mdg4) (modifier of mdg4) | DRSC13474 | 53375 | 46865 | 71115 | 56575 | 7530
mod(mdg4) (modifier of mdg4) | DRSC13475 | 70605 | 68065 | 85635 | 73015 | 11655
mod(mdg4) (modifier of mdg4) | DRSC13478 | 94485 | 90445 | 1.04e5 | 90805 | 10645
mod(mdg4) (modifier of mdg4) | DRSC13479 | 82610 | 77500 | 1.10e5 | 97340 | 9195
mod(mdg4) (modifier of mdg4) | DRSC15042 | 1.83e5 | 1.74e5 | 2.16e5 | 2.17e5 | 13705
mod(mdg4) (modifier of mdg4) | DRSC17000 | 4890 | 4245 | 4860 | 5090 | 290
CG11350 | DRSC08181 | 1.81e5 | 1.98e5 | 1.88e5 | 1.84e5 | 5575
Slimp (Seryl-tRNA synthetase-like insect mitochondrial protein) | DRSC13656 | 1.60e5 | 1.74e5 | 2.16e5 | 2.04e5 | 14220
CG15147 | DRSC02447 | 1.34e5 | 1.45e5 | 1.21e5 | 1.65e5 | 10635
CG15147 | DRSC02448 | 1.21e5 | 1.18e5 | 1.63e5 | 1.56e5 | 10270
CG12362 | DRSC09884 | 2.41e5 | 1.43e5 | 3.42e5 | 2.43e5 | 6615
CG7366 | DRSC10825 | 1.84e5 | 1.82e5 | 3.08e5 | 2.72e5 | 17890
CG12448 | DRSC01967 | 1.29e5 | 1.33e5 | 1.47e5 | 1.66e5 | 11665
CG10561 | DRSC02068 | 2.10e5 | 2.04e5 | 1.79e5 | 1.93e5 | 16665
CG14302 | DRSC14781 | 2.09e5 | 1.56e5 | 1.57e5 | 1.41e5 | 11785
CG32344 | DRSC08578 | 95755 | 89160 | 1.77e5 | 1.87e5 | 7535
Vha100-5 (Vacuolar H[+] ATPase 100kD subunit 5) | DRSC02175 | 1.02e5 | 1.30e5 | 69920 | 1.06e5 | 17290
Grx5 (Glutaredoxin 5) | DRSC19593 | 86355 | 82775 | 1.41e5 | 1.25e5 | 13970
sgg (shaggy) | DRSC17228 | 56480 | 61525 | 84835 | 92145 | 4690
sgg (shaggy) | DRSC17722 | 56380 | 65740 | 89455 | 90525 | 4685
sgg (shaggy) | DRSC18832 | 1.42e5 | 1.15e5 | 2.01e5 | 1.95e5 | 6540
Pgant6 (Polypeptide N-Acetylgalactosaminyltransferase 6) | DRSC08552 | 1.05e5 | 1.19e5 | 1.76e5 | 2.29e5 | 8120
CG9004 | DRSC08617 | 1.30e5 | 1.47e5 | 2.31e5 | 1.68e5 | 7900
Wwox (WW domain containing oxidoreductase) | DRSC03030 | 1.78e5 | 1.94e5 | 1.88e5 | 1.90e5 | 18680
CG5946 | DRSC10560 | 1.03e5 | 1.24e5 | 1.66e5 | 1.25e5 | 6740
